Primary screen of a compound library

Amino acid sequences for entries named in this document (tags omitted).
UniProt E9BF75, entry or part of it: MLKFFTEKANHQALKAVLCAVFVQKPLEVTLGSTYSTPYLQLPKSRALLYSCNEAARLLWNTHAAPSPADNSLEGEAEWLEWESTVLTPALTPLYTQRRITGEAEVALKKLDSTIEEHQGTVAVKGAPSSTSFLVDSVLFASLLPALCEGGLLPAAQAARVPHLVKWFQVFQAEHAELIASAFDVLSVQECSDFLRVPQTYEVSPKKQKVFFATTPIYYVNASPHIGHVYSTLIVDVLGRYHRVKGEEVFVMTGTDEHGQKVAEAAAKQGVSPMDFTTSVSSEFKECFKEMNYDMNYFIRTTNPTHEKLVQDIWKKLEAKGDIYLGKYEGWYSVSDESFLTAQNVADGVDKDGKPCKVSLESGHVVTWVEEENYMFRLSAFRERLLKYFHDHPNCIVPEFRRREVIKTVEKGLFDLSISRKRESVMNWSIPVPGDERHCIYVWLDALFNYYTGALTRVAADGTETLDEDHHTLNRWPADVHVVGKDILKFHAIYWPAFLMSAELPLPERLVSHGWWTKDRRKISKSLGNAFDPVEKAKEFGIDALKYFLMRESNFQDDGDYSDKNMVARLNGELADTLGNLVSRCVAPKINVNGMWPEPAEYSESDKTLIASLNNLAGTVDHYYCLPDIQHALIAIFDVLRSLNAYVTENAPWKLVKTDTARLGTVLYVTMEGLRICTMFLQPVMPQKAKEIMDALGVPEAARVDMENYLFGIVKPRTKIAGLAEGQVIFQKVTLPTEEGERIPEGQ

Data taken from ChEMBL document CHEMBL3988442, “University of Dundee, Small-Polar-MMV Screening Library” (2021).

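Methionyl-tRNA synthetase (putative), Leishmania donovani (UniProt E9BF75). Primary screen of methionyl-tRNA synthetase; the read-out is not stated. The test concentration is not given. Values are per cent inhibition. About 68,000 compounds were tested under these conditions; 0.035% (about 24) showed 50% or more at least once.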

Results are percentages, as filed. The controls that fix the scale are not given in the record; negative values are as filed. The compounds are a random part of those screened.

| SMILES | Inhibition |
|---|---|
| `O=C(Nc1cccn(CC(F)(F)F)c1=O)c1ccc(F)cc1` | 13.83% |
| `O=C1N(Cc2ccc(F)c(F)c2)CCCC1(O)CNCC1CCCCC1` (centres undefined) | 13.35% |
| `c1cc(CN2CCC(c3ccncc3)CC2)cc(Cn2cccn2)c1` | 16.72% |
| `CC(=O)NCC1CCN(C(=O)NCCc2ccc(Cl)s2)CC1` | 12.32% |
| `Cc1cc(C(=O)N2CC[C@H](OCC3CC3)[C@@H]2Cc2cccnc2)no1` | 5.439% |
| `c1cnn(CCNCc2cnc(N3CCCC3)nc2)c1` | 15.68% |
| `O=C(c1cccc(-c2ncc[nH]2)c1)N1CC[C@H](CO)[C@@H](O)C1` | 20.49% |
| `CC(C(=O)NC1CC1)N1CCN(Cc2ccn(C)c(=O)c2)CC1` (centres undefined) | 13.22% |
| `O=C1NC2(CCN(C(=O)CN3CCOCC3)CC2)Nc2ccc(Cl)cc21` | 14.6% |
| `CC(CNC(=O)c1ccon1)Oc1cccc(Br)c1` (centres undefined) | 6.355% |
| `Cc1cnn(CC2CCCCN2C(=O)c2n[nH]c3ccccc23)c1` (centres undefined) | 3.012% |
| `Cc1ccc(C(=O)N2CCN(Cc3ccc(C#N)cc3)CC2)n1C` | 8.96% |
| `CC(c1ccc2c(c1)OCO2)N1Cc2nc(N(C)C)ncc2C1=O` (centres undefined) | 13.65% |
| `CCOc1ccccc1CC(=O)N1C[C@@H](C(=O)O)[C@H](C2CC2)C1` | 19% |
| `CCc1nccn1C1CCCN(C(=O)c2ccc3[nH]nnc3c2)C1` (centres undefined) | 8.591% |
| `CS(=O)(=O)N1CCn2c(C(=O)N3CCOCC3)cnc2C1` | 15.58% |
| `CNC(=O)CN1CCCC1c1ccccc1Br` (centres undefined) | 17.87% |
| `Cc1csc(CNC(=O)NCC(O)c2ccc(F)c(F)c2)n1` (centres undefined) | 9.239% |
| `Cc1nn(C)cc1CN1CCCC1c1cccc(Nc2nccs2)n1` (centres undefined) | 20.31% |
| `CN(Cc1cnn(C)c1)C(=O)CN1CCCC1Cn1cncn1` (centres undefined) | 14.91% |
| `Cc1ccnc(NC(=O)C2(n3cnnn3)CCCCC2)c1` | 16.91% |
| `CN(CCN1CCCCC1)C(=O)c1cc(CN2CCOCC2)on1` | 8.374% |
| `NC(=O)CN(C(=O)c1c[nH]c2ncccc12)C1CCCC1` | 11.56% |
| `Cc1csc(N2CCN(CC(=O)NCc3ccccn3)CC2C)n1` (centres undefined) | 11.11% |
| `Cc1noc(C)c1CN1CCOC2(CCCN(c3nccs3)C2)C1` (centres undefined) | 7.95% |
| `CN(Cc1cnn(C)c1)C(=O)NCc1csc(Br)c1` | -0.9524% |
| `COc1ccc(-c2noc(Cn3cc4c(n3)CCC4)n2)c(OC)c1OC` | 9.358% |
| `Cc1nn(-c2ccccc2)cc1C(=O)N1CCCC1c1cnn(C)c1` (centres undefined) | 5.556% |
| `CC(C)N[C@@H]1CC[C@@H]1NC(=O)c1ccccc1OC(F)(F)C(F)F` | 13.09% |
| `CCC(C)NC(=O)CN1CCOCC1` (centres undefined) | 6.522% |
| `Cc1cccc(C(=O)N2CCN(c3ccc(-n4cccc4)nn3)CC2)c1` | 15.94% |
| `Cc1ccc(C(=O)N2C[C@H]3CN(Cc4csc(C)n4)C[C@H]3C2)cn1` | 14.72% |
| `O=C(CC1CCCC1)N1CCC(c2nnc(-c3ccccn3)o2)CC1` | 3.438% |
| `CCN1CCCC(C)(C(=O)NCCc2n[nH]c(=O)[nH]2)C1` (centres undefined) | 8.38% |
| `CCn1cc(S(=O)(=O)N2CCCC3(CC=CNC3=O)C2)c(C)n1` (centres undefined) | 14.7% |
| `Cc1nc(N2CCOCC2)nc2c1CCN(Cc1cccnc1)CC2` | 15.48% |
| `O=C(CN1C(=O)c2ccccc2C1=O)N1CCOC2(CCOCC2)C1` | 4.348% |
| `c1cncc(CNc2cccc(OCCN3CCCCC3)c2)c1` | 17.83% |
| `O=S(=O)(c1ccccc1)N1CCCN(CCCn2ccnc2)CC1` | 9.294% |
| `COC(=O)c1ccc(N(C(=O)c2ccncc2)C(C)C)c(C)c1` | 10.34% |
| `CCc1nc(N)nc(NCCC(=O)NC2CCCCC2)c1C` | 16.03% |
| `O=C1CCC2(CCCN(C(=O)c3cscn3)C2)CN1CCc1c[nH]cn1` (centres undefined) | 16.54% |
| `O=C(NC1CCN(c2cccc(OC(F)(F)F)c2)C1=O)C1CCC1` (centres undefined) | 16.98% |
| `CN(C)[C@H]1CCCCN(C(=O)c2cccc(-c3cccc(F)c3)c2)C1` | 15.35% |
| `CCNC(=O)NC(=O)CN(CC(C)O)c1ccccc1` (centres undefined) | 8.591% |
| `CCc1ccccc1Nc1noc2c1CN(C(=O)CNC(C)=O)CC2` | 13.5% |
| `COCCNC(=O)[C@H]1CO[C@H]2CCN(Cc3cccs3)C[C@H]2C1` | 10.85% |
| `Cc1ccc(C(=O)NC2CCN(Cc3noc(C(C)C)n3)CC2)s1` | 13.9% |
| `CNc1cc(C)nc(NC2CCCN(C3Cc4ccccc4C3)C2)n1` (centres undefined) | 7.035% |
| `O[C@@H]1C[C@H]2CN(CC3CCCCC3)[C@H](Cc3ccccc3)CN2C1` | 5.346% |
| `NC(=O)c1ccc(N2CCCCC2)c(NC(=O)c2ccc(Br)cc2)c1` | 20.5% |
| `O=c1oc(-c2ccc(F)cc2)nn1CN1CCN(CC2CC2)CC1` | 17.38% |
| `Cc1nn(C)c(Oc2cccnc2)c1NC(=O)C1CCCO1` (centres undefined) | 1.282% |
| `CCc1ncncc1C(=O)N1CCN(Cc2c(C)noc2C)CC1` | 12.6% |
| `CCc1cccc(N2CCC(NC(=O)c3ccncc3)CC2)c1` | 18.62% |
| `Cc1cc(C(=O)N2C[C@@H]3COC[C@]3(c3nnc(C4CC4)o3)C2)on1` | 13.81% |
| `CN(C)C(=O)C1(CCCc2ccccn2)CCN1Cc1nccn1C` (centres undefined) | 17.46% |
| `CC(=O)N(Cc1ncc(C)o1)C1CCN(Cc2cccc(C#N)c2)C1` (centres undefined) | 16.73% |
| `CC(=O)N1CCN([C@@H]2CN(C(=O)Cc3ccccc3C)C[C@H]2O)CC1` | 18.35% |
| `CCc1noc(C)c1C(=O)N1CCC(c2[nH]ncc2S(C)(=O)=O)C1` (centres undefined) | 9.176% |
| `Cc1ccc(C(=O)N2CCSCC2)cc1NC(=O)Cn1cncn1` | 20.5% |
| `O=C(c1ccncc1)N1CCC2(CC1)CCN(C(=O)c1cccnc1)C2` | 17.05% |
| `COc1ccc(C2CN(c3ncccn3)CCN2C(C)=O)cc1` (centres undefined) | 8.721% |

The first 7 entries again:

| SMILES | Inhibition |
|---|---|
| `O=C(Nc1cccn(CC(F)(F)F)c1=O)c1ccc(F)cc1` | 13.83% |
| `O=C1N(Cc2ccc(F)c(F)c2)CCCC1(O)CNCC1CCCCC1` (centres undefined) | 13.35% |
| `c1cc(CN2CCC(c3ccncc3)CC2)cc(Cn2cccn2)c1` | 16.72% |
| `CC(=O)NCC1CCN(C(=O)NCCc2ccc(Cl)s2)CC1` | 12.32% |
| `Cc1cc(C(=O)N2CC[C@H](OCC3CC3)[C@@H]2Cc2cccnc2)no1` | 5.439% |
| `c1cnn(CCNCc2cnc(N3CCCC3)nc2)c1` | 15.68% |
| `O=C(c1cccc(-c2ncc[nH]2)c1)N1CC[C@H](CO)[C@@H](O)C1` | 20.49% |